Experimental data: PubChem BioAssay AID1259254 (NCATS, 2017)

- Purpose: 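Genome-wide screen for genes that prevent DNA re-replication in cancer cells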 (primary screen)
- Cell system: human HCT116 colorectal cancer cells
- Reagents: single siRNA against human genes
- Timing: 3 days
- Measured: 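Nuclei stained with Hoechst and imaged; cell-cycle phase assigned by DNA content; G2 share scaled per plate, non-targeting siRNA 0%, GMNN siRNA 100%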
- Direction: G2 robust z-score: higher = more G2 cells, more excess DNA replication
- Active means: 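Active siRNAs have a G2 robust z of 5 or more median absolute deviations over the median, which in these data means about 38% or higher of GMNN control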
Shown is one part, drawn at random, of about 59,000 deposited reagents. About 1,550 of all reagents (2.6%) count as active. 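G2 share is only a proxy for re-replication; each gene was hit by three separate siRNAs, and active genes were retested.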 Reagents against one gene are numbered here. Not all columns of the deposit are shown. Not given: the amount of reagent.

G2 robust z-score, by target gene and reagent
NDUFB2: #1 -0.257 inactive; #2 0.687 inactive; #3 0.777 inactive
ERG: #1 0.357 inactive; #2 1.18 inactive; #3 -0.575 inactive
XAF1: #1 -0.318 inactive; #2 -0.0794 inactive; #3 0.1 inactive
NAA80: #1 2.4 inactive; #2 0.0818 inactive; #3 3.35 inactive
MAP1LC3BP1: #1 -0.597 inactive; #2 -0.186 inactive; #3 0.556 inactive
SIPA1L3: #1 -0.87 inactive; #2 1.25 inactive; #3 1.97 inactive
GPR18: #1 -0.762 inactive; #2 1.95 inactive; #3 -0.568 inactive
H4C14: #1 3.83 inactive; #2 -1.18 inactive; #3 -0.638 inactive
ASCL5: #1 -0.696 inactive; #2 0.762 inactive; #3 -1.22 inactive; #4 2.08 inactive; #5 -0.699 inactive; #6 2.69 inactive
